Source: PubChem BioAssay AID504771 (Drosophila RNAi Screening Center, 2011)
Purpose: 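Fly cell regulators of aggregate formation by polyglutamine huntingtin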 (follow-up of hits). Cells: Drosophila S2 cells with copper-inducible mutant huntingtin exon 1 (46 glutamines)-eGFP. Reagents: long dsRNA against Drosophila genes, 250 ng dsRNA per well. Time to read-out: 3 days of knock-down, then 2 days of copper induction before fixing. Challenge: copper sulfate at 400 µM to switch on Htt-Q46-eGFP expression. Detection: 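Automated image analysis of GFP-tagged aggregates per well: number, size and intensity against plate mean and SD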. Rule for the call: 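Primary hit when aggregate count, size or brightness differed from plate mean by over 2 SD; called active only after clearing every validation step (off-target, repeat, second dsRNA, promoter counter-screen)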. Meaning of the calls: active = confirmed modifier; inactive = primary candidate not confirmed.
Only reagents picked out of a larger screen are listed. 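All genes were primary candidates; inactive means validation failed, not no effect; aggregate scores behind calls are not deposited.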 A plus sign joins genes that one reagent is predicted to hit.

target | DRSC id | aggregation phenotype | call
Brr2 (GeneID 39737) | DRSC10559 | knock-down lowers aggregates | inactive
swm (GeneID 35235) | DRSC21831 | knock-down lowers aggregates | inactive
polo (GeneID 40232) | DRSC22359 | knock-down lowers aggregates | active
Spt20 (GeneID 39522) | DRSC10280 | knock-down raises aggregates | inactive
CG6610 (GeneID 38693) | DRSC10674 | knock-down lowers aggregates | inactive
Uba2 (GeneID 44496) | DRSC11311 | knock-down lowers aggregates | active
Madm (GeneID 40710) | DRSC12129 | – | active
Rab1 (GeneID 42524) | DRSC16808 | knock-down lowers aggregates | active
brm (GeneID 39744) | DRSC11330 | knock-down lowers aggregates | active
pont (GeneID 53439) | DRSC17029 | knock-down lowers aggregates | inactive
msk (GeneID 44747) | DRSC11340 | knock-down lowers aggregates | inactive
Ns1 (GeneID 42060) | DRSC15529 | knock-down lowers aggregates | inactive
Nup62 (GeneID 36830) | DRSC06970 | knock-down lowers aggregates | active
Pfk (GeneID 36060) | DRSC07506 | knock-down raises aggregates | active
Nelf-A (GeneID 42520) | DRSC15903 | knock-down may raise aggregates | active
Cdc27 (GeneID 38798) | DRSC11112 | knock-down lowers aggregates | inactive
IntS11 (GeneID 43506) | DRSC15407 | knock-down raises aggregates | active
Su(Tpl) (GeneID 40171) | DRSC10954 | knock-down lowers aggregates | inactive
Chro (GeneID 40508) | DRSC11630 | knock-down raises aggregates | active
Fs(2)Ket (GeneID 35336) | DRSC03328 | knock-down lowers aggregates | inactive
FASN1 (GeneID 33524) | DRSC00268 | knock-down lowers aggregates | inactive
mRpL9 (GeneID 41859) | DRSC15678 | knock-down lowers aggregates | inactive
RpL23A (GeneID 38208) | DRSC08694 | knock-down lowers aggregates | inactive
eIF3a (GeneID 40563) | DRSC12339 | knock-down lowers aggregates | inactive
Karybeta3 (GeneID 40581) | DRSC12355 | knock-down lowers aggregates | active
Vha26 (GeneID 40679) | DRSC12371 | knock-down raises aggregates | inactive
rl (GeneID 3354888) | DRSC20742 | knock-down lowers aggregates | inactive
Ge-1 (GeneID 34541) | DRSC02938 | knock-down raises aggregates | inactive
eIF3c (GeneID 37005) | DRSC06905 | knock-down lowers aggregates | inactive
Sse (GeneID 38640) | DRSC09746 | knock-down lowers aggregates | inactive
RpS4 (GeneID 39484) | DRSC11272 | knock-down lowers aggregates | inactive
RpL7 (GeneID 34352) | DRSC03417 | knock-down lowers aggregates | inactive
Hsp110 (GeneID 39557) | DRSC11186 | knock-down raises aggregates | active
MED8 (GeneID 37305) | DRSC06426 | knock-down lowers aggregates | inactive
lqfR (GeneID 42632) | DRSC14704 | knock-down raises aggregates | inactive
Polr2E (GeneID 36160) | DRSC06100 | knock-down lowers aggregates | inactive
eIF5B (GeneID 44261) | DRSC08710 | knock-down lowers aggregates | inactive
RpL31 (GeneID 35988) | DRSC06716 | knock-down lowers aggregates | inactive
CG32104 (GeneID 39413) | DRSC10127 | knock-down lowers aggregates | inactive
Pp1-13C (GeneID 48531) | DRSC20269 | knock-down lowers aggregates | inactive
Dp (GeneID 36461) | DRSC07402 | knock-down raises aggregates | active
MED16 (GeneID 37535) | DRSC04506 | knock-down lowers aggregates | inactive
w-cup (GeneID 34455) | DRSC03048 | knock-down lowers aggregates | inactive
sxc (GeneID 35486) | DRSC04911 | knock-down lowers aggregates | inactive
mRpS6 (GeneID 38535) | DRSC08470 | knock-down lowers aggregates | inactive
RpL3 (GeneID 41347) | DRSC16834 | knock-down lowers aggregates | inactive
alphaCOP (GeneID 38199) | DRSC08706 | knock-down lowers aggregates | inactive
BTBD9 (GeneID 32000) | DRSC22371 | knock-down lowers aggregates | inactive
RpLP0 (GeneID 40451) | DRSC11878 | knock-down lowers aggregates | inactive
RpLP0 (GeneID 40451) | DRSC22110 | knock-down lowers aggregates | inactive
Hsc70-4 (GeneID 41840) | DRSC16711 | knock-down lowers aggregates | active
Prosbeta6 (GeneID 39855) | DRSC11256 | knock-down lowers aggregates | inactive
betaTub56D (GeneID 37238) | DRSC07583 | knock-down lowers aggregates | active
mRpL17 (GeneID 38046) | DRSC08350 | knock-down lowers aggregates | inactive
MED31 (GeneID 40577) | DRSC12142 | knock-down lowers aggregates | inactive
RpL9 (GeneID 34526) | DRSC03418 | knock-down lowers aggregates | inactive
RpS9 (GeneID 39108) | DRSC11273 | knock-down lowers aggregates | inactive
tral (GeneID 39430) | DRSC09779 | knock-down raises aggregates | inactive
RpL38 (GeneID 3355144) | DRSC07818 | knock-down lowers aggregates | inactive
Prosbeta1 (GeneID 46058) | DRSC07159 | knock-down lowers aggregates | active
Pvr (GeneID 34127) | DRSC03080 | knock-down lowers aggregates | inactive
IntS4 (GeneID 31793) | DRSC17810 | knock-down raises aggregates | active
GlnRS (GeneID 45786) | DRSC14140 | knock-down lowers aggregates | inactive
RpL24 (GeneID 34754) | DRSC03185 | knock-down lowers aggregates | inactive
Prosalpha1 + Prosalpha1R | DRSC07515 | knock-down lowers aggregates | inactive
cv-c (GeneID 41749) | DRSC23199 | knock-down raises aggregates | inactive
CG11583 (GeneID 326206) | DRSC08202 | knock-down lowers aggregates | active
Pcf11 (GeneID 36658) | DRSC05983 | knock-down lowers aggregates | inactive
Polr3E (GeneID 40325) | DRSC11880 | knock-down lowers aggregates | inactive
Tektin-C (GeneID 38653) | DRSC09741 | knock-down lowers aggregates | active
NELF-B (GeneID 31681) | DRSC17734 | knock-down raises aggregates | active
CG6066 (GeneID 43267) | DRSC22228 | knock-down lowers aggregates | inactive
RpL32 (GeneID 43573) | DRSC16835 | knock-down lowers aggregates | inactive
Cbp20 (GeneID 42166) | DRSC16601 | knock-down lowers aggregates | inactive
RpL21 (GeneID 35453) | DRSC03704 | knock-down lowers aggregates | inactive
crn (GeneID 31208) | DRSC18184 | knock-down lowers aggregates | inactive
crn (GeneID 31208) | DRSC18185 | knock-down lowers aggregates | inactive
crn (GeneID 31208) | DRSC18755 | knock-down lowers aggregates | active
RpL7-like + CG34164 | DRSC02836 | knock-down lowers aggregates | inactive
Ctr9 (GeneID 38149) | DRSC08562 | knock-down lowers aggregates | inactive
Tsen34 (GeneID 2768977) | DRSC22932 | knock-down raises aggregates | inactive
Prosalpha3 (GeneID 37378) | DRSC04644 | knock-down lowers aggregates | inactive
CG2063 (GeneID 35952) | DRSC06811 | knock-down lowers aggregates | inactive
Rpn6 (GeneID 36638) | DRSC07541 | knock-down lowers aggregates | inactive
Pss (GeneID 40281) | DRSC11757 | knock-down lowers aggregates | inactive
Srp54 (GeneID 34312) | DRSC03442 | knock-down lowers aggregates | inactive
velo (GeneID 38748) | DRSC08841 | knock-down lowers aggregates | inactive
velo (GeneID 38748) | DRSC09698 | knock-down lowers aggregates | inactive
ND-B14 (GeneID 36159) | DRSC07029 | knock-down lowers aggregates | inactive
Syx5 (GeneID 34966) | DRSC03432 | knock-down lowers aggregates | inactive
Nup160 (GeneID 34549) | DRSC02774 | knock-down lowers aggregates | active
Bx42 (GeneID 31840) | DRSC17743 | knock-down lowers aggregates | inactive
mute (GeneID 2768848) | DRSC22931 | knock-down raises aggregates | inactive
CG9300 (GeneID 40128) | DRSC11064 | knock-down lowers aggregates | active
Wdr33 (GeneID 40698) | DRSC12162 | knock-down lowers aggregates | inactive
RpS6 (GeneID 31700) | DRSC18712 | knock-down lowers aggregates | inactive
defl (GeneID 39141) | DRSC10300 | knock-down raises aggregates | active
Rpn1 (GeneID 40174) | DRSC11274 | knock-down lowers aggregates | active
Rpt5 (GeneID 42805) | DRSC16842 | knock-down lowers aggregates | active
MTF-1 (GeneID 39089) | DRSC11217 | knock-down lowers aggregates | inactive
MTF-1 (GeneID 39089) | DRSC21341 | knock-down lowers aggregates | inactive
NdufA3 (GeneID 50405) | DRSC18431 | knock-down raises aggregates | inactive
TfIIFalpha (GeneID 40790) | DRSC12608 | knock-down lowers aggregates | inactive
spag (GeneID 43958) | DRSC04717 | knock-down raises aggregates | active
CG32733 (retired record) + CG32797 | DRSC17705 | knock-down lowers aggregates | inactive
mRpS33 (GeneID 41991) | DRSC14239 | knock-down lowers aggregates | inactive
Vha68-2 (GeneID 45012) | DRSC02721 | knock-down may raise aggregates | inactive
Mo25 (GeneID 39858) | DRSC11224 | knock-down lowers aggregates | inactive
vers (GeneID 39374) | DRSC10715 | knock-down raises aggregates | inactive
vers (GeneID 39374) | DRSC23232 | knock-down raises aggregates | inactive
